# Data taken from the supplement of paper PMC8728848.
# The other results are listed elsewhere or left out.
# B1: RfpC (Mycobacterium tuberculosum), O07747 (protein)
# chain: MHHHHHHSSGRENLYFQGHMASKSAMAAGLVTASMSLSTAVAHAGPSPNWDAVAQCESGGNWAANTGNGKYGGLQFKPATWAAFGGVGNPAAASREQQIAVANRVLAEQGLDAWPTCGAASGLPIALWSKPAQGIKGS
# Tests used:
# Assay in all cases: glycan array binding signal (z-score within array); higher = stronger binding
# Conditions in all cases: glycan notation: IUPAC condensed, linker removed
# [1] = target: Gal(b1-3)[GlcNAc(b1-6)]GalNAc
# How it was run: (§1)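 The binding signal is a Z-score computed within each array. Data were drawn from 3228 arrays in the Consortium for Functional Glycomics database, restricted to those with a known protein sequence. Scores were averaged over arrays of the same protein sequence at different concentrations or buffers, and over linkers, and negative values can be taken as non-binding.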
# [2] = target: Gal(b1-3)[Neu5Ac(a2-6)]GalNAc
# How it was run: as §1
# [3] = target: Gal(b1-3)[Neu5Ac(a2-6)]GlcNAc(b1-6)Gal(b1-4)Glc
# How it was run: as §1
# [4] = target: Gal(b1-3)[Neu5Ac(b2-6)]GalNAc
# How it was run: as §1
# [5] = target: Gal(b1-4)GalNAc(a1-3)[Fuc(a1-2)]Gal(b1-4)GlcNAc
# How it was run: as §1
# [6] = target: Gal(b1-4)GalNAc(b1-3)[Fuc(a1-2)]Gal(b1-4)GlcNAc
# How it was run: as §1
# Gal(b1-4)Glc = target: Gal(b1-4)Glc
# How it was run: as §1
# Gal(b1-4)Glc6S = target: Gal(b1-4)Glc6S
# How it was run: as §1
# Gal(b1-4)GlcNAc = target: Gal(b1-4)GlcNAc
# How it was run: as §1
# [7] = target: Gal(b1-4)GlcNAc(a1-6)Gal(b1-4)GlcNAc
# How it was run: as §1
# [8] = target: Gal(b1-4)GlcNAc(b1-2)Man(a1-3)[Gal(b1-4)GlcNAc(b1-2)Man(a1-6)]Man(b1-4)GlcNAc(b1-4)GlcNAc
# How it was run: as §1
# [9] = target: Gal(b1-4)GlcNAc(b1-3)Gal(b1-3)GlcNAc
# How it was run: as §1
# [10] = target: Gal(b1-4)GlcNAc(b1-3)Gal(b1-4)Glc
# How it was run: as §1
# [11] = target: Gal(b1-4)GlcNAc(b1-3)Gal(b1-4)GlcNAc
# How it was run: as §1
# [12] = target: Gal(b1-4)GlcNAc(b1-3)Gal(b1-4)GlcNAc(b1-3)Gal(b1-4)GlcNAc
# How it was run: as §1
# [13] = target: Gal(b1-4)GlcNAc(b1-3)Gal(b1-4)[Fuc(a1-3)]GlcNAc(b1-3)Gal(b1-4)[Fuc(a1-3)]GlcNAc
# How it was run: as §1
# [14] = target: Gal(b1-4)GlcNAc(b1-3)GalNAc
# How it was run: as §1
# [15] = target: Gal(b1-4)GlcNAc(b1-3)[Gal(b1-4)GlcNAc(b1-6)]Gal(b1-4)GlcNAc
# How it was run: as §1
# [16] = target: Gal(b1-4)GlcNAc(b1-3)[GlcNAc(b1-6)]Gal(b1-4)GlcNAc
# How it was run: as §1
# [17] = target: Gal(b1-4)GlcNAc(b1-6)Gal(b1-4)GlcNAc
# How it was run: as §1
# [18] = target: Gal(b1-4)GlcNAc(b1-6)Gal(b1-4)GlcNAc(b1-6)GalNAc
# How it was run: as §1
# [19] = target: Gal(b1-4)GlcNAc(b1-6)GalNAc
# How it was run: as §1
# [20] = target: Gal(b1-4)GlcNAc(b1-6)[Gal(b1-3)]GalNAc
# How it was run: as §1
# Gal3S(b1-3)GalNAc = target: Gal3S(b1-3)GalNAc
# How it was run: as §1
# Gal3S(b1-3)GlcNAc = target: Gal3S(b1-3)GlcNAc
# How it was run: as §1
# [21] = target: Gal3S(b1-3)[Fuc(a1-4)]GlcNAc
# How it was run: as §1
# Gal3S(b1-4)Glc = target: Gal3S(b1-4)Glc
# How it was run: as §1
# Gal3S(b1-4)Glc6S = target: Gal3S(b1-4)Glc6S
# How it was run: as §1
# Gal3S(b1-4)GlcNAc = target: Gal3S(b1-4)GlcNAc
# How it was run: as §1
# Gal3S(b1-4)GlcNAc6S = target: Gal3S(b1-4)GlcNAc6S
# How it was run: as §1
# [22] = target: Gal3S(b1-4)[Fuc(a1-3)]Glc
# How it was run: as §1
# Gal3S4S(b1-4)GlcNAc = target: Gal3S4S(b1-4)GlcNAc
# How it was run: as §1
# Gal3S6S(b1-4)GlcNAc = target: Gal3S6S(b1-4)GlcNAc
# How it was run: as §1
# Gal3S6S(b1-4)GlcNAc6S = target: Gal3S6S(b1-4)GlcNAc6S
# How it was run: as §1
# Gal4S(b1-4)GlcNAc = target: Gal4S(b1-4)GlcNAc
# How it was run: as §1
# Gal4S6S(b1-4)GlcNAc = target: Gal4S6S(b1-4)GlcNAc
# How it was run: as §1
# Gal6S(b1-4)Glc = target: Gal6S(b1-4)Glc
# How it was run: as §1
binder,measurement,setting,value
B1,glycan array binding signal (z-score),[1],-0.747
same,glycan array binding signal (z-score),[2],-0.18
same,glycan array binding signal (z-score),[3],0.823
same,glycan array binding signal (z-score),[4],0.016
same,glycan array binding signal (z-score),[5],1.08
same,glycan array binding signal (z-score),[6],3.48
same,glycan array binding signal (z-score),Gal(b1-4)Glc,-0.11
same,glycan array binding signal (z-score),Gal(b1-4)Glc6S,4.01
same,glycan array binding signal (z-score),Gal(b1-4)GlcNAc,0.012
same,glycan array binding signal (z-score),[7],-0.005
same,glycan array binding signal (z-score),[8],0.464
same,glycan array binding signal (z-score),[9],0.174
same,glycan array binding signal (z-score),[10],0.434
same,glycan array binding signal (z-score),[11],-0.68
same,glycan array binding signal (z-score),[12],2.9
same,glycan array binding signal (z-score),[13],-0.25
same,glycan array binding signal (z-score),[14],-0.607
same,glycan array binding signal (z-score),[15],0.698
same,glycan array binding signal (z-score),[16],0.313
same,glycan array binding signal (z-score),[17],0.164
same,glycan array binding signal (z-score),[18],-0.701
same,glycan array binding signal (z-score),[19],-0.822
same,glycan array binding signal (z-score),[20],-0.17
same,glycan array binding signal (z-score),Gal3S(b1-3)GalNAc,0.079
same,glycan array binding signal (z-score),Gal3S(b1-3)GlcNAc,0.156
same,glycan array binding signal (z-score),[21],-0.235
same,glycan array binding signal (z-score),Gal3S(b1-4)Glc,1.18
same,glycan array binding signal (z-score),Gal3S(b1-4)Glc6S,-0.77
same,glycan array binding signal (z-score),Gal3S(b1-4)GlcNAc,0.412
same,glycan array binding signal (z-score),Gal3S(b1-4)GlcNAc6S,0.243
same,glycan array binding signal (z-score),[22],-0.781
same,glycan array binding signal (z-score),Gal3S4S(b1-4)GlcNAc,0.32
same,glycan array binding signal (z-score),Gal3S6S(b1-4)GlcNAc,-1.36
same,glycan array binding signal (z-score),Gal3S6S(b1-4)GlcNAc6S,1.22
same,glycan array binding signal (z-score),Gal4S(b1-4)GlcNAc,0.815
same,glycan array binding signal (z-score),Gal4S6S(b1-4)GlcNAc,0.323
same,glycan array binding signal (z-score),Gal6S(b1-4)Glc,-0.902
